Assay results: PubChem BioAssay AID652039 (The Scripps Research Institute Molecular Screening Center, 2013)
This is a selection; strong and weak results do not stand in their true shares. Active and inactive are the calls of the source.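 The calls were made as follows: active = activation above the mean of all tested compounds plus 3 SD, computed per campaign excluding outliers beyond control limits (cut at about 13% in these data); inactive = the rest.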

Chains of the proteins cited; added tags and fusions are not shown. Lines headed by an entry give the natural chain unless they say otherwise; changes in a name come on top.
UniProt P49862: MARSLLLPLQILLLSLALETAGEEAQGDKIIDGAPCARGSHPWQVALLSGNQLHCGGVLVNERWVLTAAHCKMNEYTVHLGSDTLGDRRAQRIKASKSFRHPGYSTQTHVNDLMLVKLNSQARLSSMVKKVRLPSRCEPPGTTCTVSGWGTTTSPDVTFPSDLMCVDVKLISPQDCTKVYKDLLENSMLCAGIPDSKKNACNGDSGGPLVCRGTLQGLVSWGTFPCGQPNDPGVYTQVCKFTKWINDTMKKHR

What follows are molecules tested against Kallikrein-7 (Homo sapiens) (UniProt P49862) (assay: proKLK7 zymogen activators, primary screen, biochemical, fluorescence intensity (AID 652039)). Conditions: purified proKLK7, EDANS-DABCYL substrate fluorescence; at 7 µM; stronger effect = higher value; 100% is mature enzyme control, 0% vehicle.

SMILES | activation
Oc1ccc2ccccc2c1CNc1cnc2ccccc2c1 | active: 46.8%
COC(=O)COc1ccc2cc(-c3ccc(OC)cc3)c(=O)oc2c1 | active: 28.2%
